Measured values taken from patent publication US6369103B1, “Method for preventing or reducing risk of onset of cardiovascular events employing an HMG CoA reductase inhibitor” (Bristol-Myers Squibb Company, priority 1994, dated 2002).
For at least one compound, name, drawing or mass did not settle the structure.

Test system: patients with primary hypercholesterolemia and ≧2 additional risk factors for coronary artery disease
Experiment: Multinational randomized double-blind placebo-controlled trial: effects on plasma lipids
Assay type: in vivo, human
Settings: week 26
Method: J. Cardiology Vol. 72, Nov. 1, 1993, 1031-1036. […] Lipid analyses were performed at local laboratories and a central laboratory. […] The LDL cholesterol concentration was calculated using the Friedewald equation converted to mmol/liter: […] To assess the comparability of treatment groups, baseline values and demographic characteristics for all randomized patients were summarized for each treatment group by descriptive statistics. The primary efficacy variables were the serum lipids analyzed at local laboratories at weeks 0, 6, 13 and 26. All values were transformed to natural logarithms for the analysis. Geometric means were used to summarize lipid values by treatment group at each visit. Treatment groups were compared by analysis of covariance of change from baseline in transformed values with baseline as a covariate.

CC[C@H](C)C(=O)O[C@H]1C[C@H](O)C=C2C=C[C@H](C)[C@H](CC[C@@H](O)C[C@@H](O)CC(=O)O)[C@H]21 [pravastatin]
patients who achieved an LDL cholesterol level ≦4.1 mmol/liter (160 mg/dl): Eighty-one
